Source: PubChem BioAssay (NCATS)
This list was built around the results that the source calls inconclusive (neither active nor inactive); the mix of calls is not that of the screen. For part of these data: A potency beside an inconclusive call is a rough fit, not a confirmed value. Calls of active or inactive are those of the source. Unless noted, the call rests on the fitted dose curve; in most records, active means well fitted curve in the direction sought with a large enough effect; inconclusive means small, poorly fitted or top-dose-only effect, or another doubt; inactive means no such curve, though single readings can be large; an effect the other way counts as inactive or inconclusive.

Sequences of proteins named here, by UniProt entry; tags and fusion partners are left off. A change or cut given only in a name is not applied to a line headed by its entry.
UniProt P27695, whole entry, looked up: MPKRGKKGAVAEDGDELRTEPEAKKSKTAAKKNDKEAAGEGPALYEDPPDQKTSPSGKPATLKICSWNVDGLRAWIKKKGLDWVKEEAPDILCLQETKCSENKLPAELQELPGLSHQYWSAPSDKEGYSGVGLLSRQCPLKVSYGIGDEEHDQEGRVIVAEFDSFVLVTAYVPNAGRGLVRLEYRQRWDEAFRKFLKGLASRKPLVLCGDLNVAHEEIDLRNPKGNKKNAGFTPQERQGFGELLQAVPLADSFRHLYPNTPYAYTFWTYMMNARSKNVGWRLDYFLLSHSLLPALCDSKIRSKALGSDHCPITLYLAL
UniProt Q9UBT6: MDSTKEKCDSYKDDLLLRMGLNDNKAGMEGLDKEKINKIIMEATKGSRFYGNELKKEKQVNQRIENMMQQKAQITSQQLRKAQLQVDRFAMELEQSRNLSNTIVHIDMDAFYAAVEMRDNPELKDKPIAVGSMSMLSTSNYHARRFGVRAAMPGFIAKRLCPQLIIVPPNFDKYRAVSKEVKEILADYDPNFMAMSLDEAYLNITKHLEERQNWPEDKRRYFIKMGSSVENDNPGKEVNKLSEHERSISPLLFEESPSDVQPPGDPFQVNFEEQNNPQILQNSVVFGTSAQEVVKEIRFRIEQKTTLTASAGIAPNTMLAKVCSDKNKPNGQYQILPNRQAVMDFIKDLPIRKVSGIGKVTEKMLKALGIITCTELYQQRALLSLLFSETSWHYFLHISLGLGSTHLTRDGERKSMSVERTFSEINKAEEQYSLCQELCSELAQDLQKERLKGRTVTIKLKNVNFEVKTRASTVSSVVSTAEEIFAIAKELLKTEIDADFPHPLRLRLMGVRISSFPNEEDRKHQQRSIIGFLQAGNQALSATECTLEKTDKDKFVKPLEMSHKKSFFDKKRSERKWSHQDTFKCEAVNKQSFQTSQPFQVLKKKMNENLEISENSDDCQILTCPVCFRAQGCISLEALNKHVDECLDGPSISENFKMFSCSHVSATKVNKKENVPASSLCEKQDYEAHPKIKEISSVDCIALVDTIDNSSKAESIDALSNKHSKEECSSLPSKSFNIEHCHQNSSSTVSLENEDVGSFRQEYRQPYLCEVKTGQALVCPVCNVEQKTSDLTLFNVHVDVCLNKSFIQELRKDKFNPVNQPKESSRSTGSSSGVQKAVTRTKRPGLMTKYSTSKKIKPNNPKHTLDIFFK
UniProt P54132: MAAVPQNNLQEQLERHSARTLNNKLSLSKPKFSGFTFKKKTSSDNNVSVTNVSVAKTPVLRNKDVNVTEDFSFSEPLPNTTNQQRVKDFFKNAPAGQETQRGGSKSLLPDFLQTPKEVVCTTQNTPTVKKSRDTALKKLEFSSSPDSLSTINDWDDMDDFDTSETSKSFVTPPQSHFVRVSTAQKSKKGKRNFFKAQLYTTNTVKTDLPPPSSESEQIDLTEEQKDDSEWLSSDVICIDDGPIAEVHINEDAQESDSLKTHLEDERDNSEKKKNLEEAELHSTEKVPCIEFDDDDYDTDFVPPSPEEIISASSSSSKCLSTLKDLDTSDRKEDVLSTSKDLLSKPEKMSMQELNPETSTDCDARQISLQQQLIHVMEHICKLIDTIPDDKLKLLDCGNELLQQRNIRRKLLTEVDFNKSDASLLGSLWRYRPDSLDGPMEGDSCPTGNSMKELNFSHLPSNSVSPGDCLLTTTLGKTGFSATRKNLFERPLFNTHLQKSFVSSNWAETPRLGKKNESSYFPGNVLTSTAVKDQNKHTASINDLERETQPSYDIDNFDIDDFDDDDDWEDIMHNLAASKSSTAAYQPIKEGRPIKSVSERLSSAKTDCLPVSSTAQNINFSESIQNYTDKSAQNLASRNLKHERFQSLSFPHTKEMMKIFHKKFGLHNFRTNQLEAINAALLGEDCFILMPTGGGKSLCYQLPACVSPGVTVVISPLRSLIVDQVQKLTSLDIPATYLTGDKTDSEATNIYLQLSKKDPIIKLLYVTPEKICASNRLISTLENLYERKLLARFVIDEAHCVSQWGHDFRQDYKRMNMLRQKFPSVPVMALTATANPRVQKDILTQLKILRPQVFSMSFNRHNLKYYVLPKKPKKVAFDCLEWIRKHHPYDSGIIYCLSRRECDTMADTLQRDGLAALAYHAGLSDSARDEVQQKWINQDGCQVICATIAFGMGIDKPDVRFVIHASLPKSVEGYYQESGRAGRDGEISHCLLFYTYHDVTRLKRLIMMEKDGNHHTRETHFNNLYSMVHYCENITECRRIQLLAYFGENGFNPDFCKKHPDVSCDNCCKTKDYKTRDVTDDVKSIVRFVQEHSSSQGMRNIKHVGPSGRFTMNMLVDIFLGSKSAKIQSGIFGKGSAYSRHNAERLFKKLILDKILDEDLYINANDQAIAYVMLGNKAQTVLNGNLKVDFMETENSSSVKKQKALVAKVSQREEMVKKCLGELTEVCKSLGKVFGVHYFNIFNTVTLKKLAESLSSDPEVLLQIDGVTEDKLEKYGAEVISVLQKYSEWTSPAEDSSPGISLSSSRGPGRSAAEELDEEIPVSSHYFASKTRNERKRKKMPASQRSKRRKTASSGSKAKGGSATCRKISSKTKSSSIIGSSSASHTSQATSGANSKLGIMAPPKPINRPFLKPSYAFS
UniProt P02791: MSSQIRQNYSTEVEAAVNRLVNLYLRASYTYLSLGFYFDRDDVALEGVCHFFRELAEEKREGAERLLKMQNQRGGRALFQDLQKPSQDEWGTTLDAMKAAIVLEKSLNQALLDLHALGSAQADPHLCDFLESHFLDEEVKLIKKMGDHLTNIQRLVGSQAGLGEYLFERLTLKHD
UniProt Q9NUW8, whole entry, looked up: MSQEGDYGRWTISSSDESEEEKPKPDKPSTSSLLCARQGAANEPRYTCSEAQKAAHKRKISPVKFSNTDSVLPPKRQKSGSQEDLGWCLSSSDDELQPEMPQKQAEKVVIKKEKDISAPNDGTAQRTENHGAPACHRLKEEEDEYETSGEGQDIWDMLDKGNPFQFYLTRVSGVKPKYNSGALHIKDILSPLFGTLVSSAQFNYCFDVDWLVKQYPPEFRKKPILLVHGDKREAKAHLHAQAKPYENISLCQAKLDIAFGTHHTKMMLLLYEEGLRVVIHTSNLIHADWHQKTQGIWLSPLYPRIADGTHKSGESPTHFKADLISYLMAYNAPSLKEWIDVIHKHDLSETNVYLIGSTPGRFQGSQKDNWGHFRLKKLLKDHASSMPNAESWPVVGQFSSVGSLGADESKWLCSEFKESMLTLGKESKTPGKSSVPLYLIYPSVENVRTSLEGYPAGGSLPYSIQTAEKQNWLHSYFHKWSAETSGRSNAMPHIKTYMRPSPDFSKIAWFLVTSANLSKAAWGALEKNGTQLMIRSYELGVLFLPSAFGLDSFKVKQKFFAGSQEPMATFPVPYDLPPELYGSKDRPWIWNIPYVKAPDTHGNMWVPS
UniProt P83916, whole entry, looked up: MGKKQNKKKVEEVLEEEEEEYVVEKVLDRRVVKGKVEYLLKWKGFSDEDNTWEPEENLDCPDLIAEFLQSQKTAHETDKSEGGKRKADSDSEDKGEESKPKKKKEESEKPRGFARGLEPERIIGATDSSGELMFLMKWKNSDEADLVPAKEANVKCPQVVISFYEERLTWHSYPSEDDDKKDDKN
UniProt P21728, whole entry, looked up: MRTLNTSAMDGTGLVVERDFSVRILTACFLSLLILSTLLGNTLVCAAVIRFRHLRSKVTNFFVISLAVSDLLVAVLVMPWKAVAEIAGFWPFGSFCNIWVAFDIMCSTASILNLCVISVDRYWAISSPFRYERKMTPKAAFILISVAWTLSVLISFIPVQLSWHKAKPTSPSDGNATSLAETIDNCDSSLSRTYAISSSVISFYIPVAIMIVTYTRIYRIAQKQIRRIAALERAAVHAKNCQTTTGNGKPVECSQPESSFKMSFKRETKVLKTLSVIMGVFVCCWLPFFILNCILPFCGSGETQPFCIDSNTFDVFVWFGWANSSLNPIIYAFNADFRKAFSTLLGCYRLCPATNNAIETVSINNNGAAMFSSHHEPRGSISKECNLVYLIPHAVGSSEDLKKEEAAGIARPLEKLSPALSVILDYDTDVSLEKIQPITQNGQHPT

Columns and labels:
[1] = qHTS Assay for Inhibitors of Fructose-1,6-bisphosphate Aldolase from Giardia Lamblia: Giardia lamblia growth inhibition (AID 2785); settings: Giardia lamblia trophozoite growth inhibition; activity change, negative = inhibition: at 57.5 µM (top of the series); further: nearly all actives have a fitted effect of over 70% in size; on activity change, negative = inhibition: on the % scale 0 is the no-effect control and ±100 the full control effect
Summary of the method: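 G. lamblia WB trophozoites (100 cells/well) in modified TYI-S-33 medium, pH 7.0, were exposed to pin-transferred compounds or DMSO for 48 h at 37C in sealed bags. Viability was read as ATPlite luminescence after 20 min at room temperature.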

[2] = molecular target: DNA repair nuclease/redox regulator APEX1 (Homo sapiens) (UniProt P27695); test: Confirmation qHTS Assay for Inhibitors of the Human Apurinic/apyrimidinic Endonuclease 1 (APE1) (AID 2572); further: nearly all actives have a fitted effect of over 30% in size;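 on activity change, negative = inhibition: fluorescence gain from purified APE1 cutting a TAMRA/BHQ-2 THF abasic duplex; on the % scale 0 is the no-effect control and ±100 the full control effect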
Summary of the method: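 Confirmation qHTS in dose-response format: APE1 exposed to compound 15 min at RT, then reaction started with 50 nM final TAMRA/BHQ-2 abasic substrate. Three fluorescence reads 60 s apart; endpoint minus initial read gives progress.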

[3] = molecular target: DNA polymerase kappa (Homo sapiens) (UniProt Q9UBT6); test: qHTS for Inhibitors of Polymerase Kappa: Confirmatory Assay for Cherry-picked Compounds (AID 720501); settings: purified Pol-kappa, fluorescent strand-displacement substrate
Summary of the method: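 Human Pol-kappa, dispensed at 10 nM, was preincubated with compounds for 15 min at room temperature. Reactions were started with primer/template substrate (50 nM final) carrying a TAMRA reporter strand and BHQ-2-quenched template, and fluorescence (ex 525/em 598 nm) was read at 0 and 10 min.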

[4] = molecular target: RecQ-like DNA helicase BLM (Homo sapiens) (UniProt P54132); test: qHTS Validation Assay for Inhibitors of Bloom's syndrome helicase (BLM) (AID 2364)
Summary of the method: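 BLM 50 nM in 25 mM Tris-HCl pH 8.0, 5 mM NaCl, 2 mM MgCl2, 1 mM DTT, 0.01% Tween-20, 2.5 ug/ml poly(dI-dC); 15 min cpd preinc, RT. Start: 200 nM forked DNA + 2 mM ATP (final). TAMRA read, 2 reads 2 h apart.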

[5] = molecular target: Ferritin light chain (Equus caballus) (UniProt P02791); test: qHTS Validation Assay for Identification of Novel General Anesthetics (AID 2323)
Summary of the method: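 Apoferritin from horse spleen (10 uM) was mixed with 1-aminoanthracene at 50% saturation in PBS, then compounds were added. After 10 min at room temperature, fluorescence was read (ex 380 nm, em 535 nm) and normalized to free-probe and complex controls.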

[6] = Quantitative high throughput screen for delayed death inhibitors of the malarial parasite plastid, 48 hour incubation (AID 488752); further: nearly all actives have a fitted effect of over 65% in size
Summary of the method: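 First, compound was pinned into RPMI 1640 medium containing 0.5% Albumax. Next, reporter-parasite-infected erythrocytes were added to 2% hematocrit and 0.1% parasitemia. After 48 h at 37 C under 5% CO2, luciferase detection reagent was added and luminescence read.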

[7] = molecular target: Endonuclease 4 (Escherichia coli (strain K12)) (UniProt P0A6C1); test: Counterscreen for APE1 Inhibitors: qHTS Assay for Inhibitors of Endonuclease IV (AID 2565)
Summary of the method: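 Enzyme (2 nM) + compound, 15 min RT; add 50 nM TAMRA/BHQ-2 THF-site dsDNA; kinetic read ex525/em598, 3 reads/60 s; activity = read 3 − read 1. Buffer Tris pH 7.5, 50 mM NaCl, 2 mM MgCl2, DTT, Tween-20.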

[8] = Counterscreen for APE1 Inhibitors: Fluorescent Dye Displacement Assay (AID 2564);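 further: loss of thiazole orange fluorescence as the dye is displaced from duplex DNA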
Summary of the method: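 Reaction mixture of 250 nM Thiazole Orange and 50 nM double-stranded abasic-site DNA was dispensed, compounds were pin-transferred, and fluorescence was read at endpoint (480 nm ex, 540 nm em). Reduced fluorescence indicated dye displacement by DNA binding.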

[9] = molecular target: Tyrosyl-DNA phosphodiesterase 1 (Homo sapiens) (UniProt Q9NUW8); test: Confirmation Assay for Inhibitors of Tyrosyl-DNA Phosphodiesterase (TDP1) (AID 489007); settings: recombinant human TDP1 enzymatic activity, dose-response; further: nearly all actives have a fitted effect of over 40% in size
Summary of the method: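 Compounds are preincubated 15 min at room temperature with 1 nM recombinant human Tdp1. The reaction starts on adding 15 nM FITC-phosphotyrosine DNA substrate, runs 5 min, and is detected by AlphaScreen beads after 10 min.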

[10] = molecular target: Chromobox protein homolog 1 (Homo sapiens) (UniProt P83916); test: qHTS Validation Assay for Inhibitors of HP1-beta Chromodomain Interactions with Methylated Histone Tails (AID 488953); further: nearly all actives have a fitted effect of over 50% in size
Summary of the method: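 Disruption of preformed HP1-beta:H3K9me3 peptide complexes (both 50 nM, PBS pH 7.4 with 0.01% Tween-20) is measured by AlphaScreen after 30 min compound exposure at room temperature, using streptavidin donor and nickel chelate acceptor beads at 10 ug/mL final.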

[11] = molecular target: D(1A) dopamine receptor (Homo sapiens) (UniProt P21728); test: HTS Assay for Allosteric Agonists of the Human D1 Dopamine Receptor: Primary Screen for Potentiators (AID 488982)
Summary of the method: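 Tetracycline-induced HEK293 T-REx cells force-coupled to calcium signalling were incubated overnight at 30 C and dye-loaded at room temperature. Calcium flux over 180 s after compound addition flagged agonists; a further 180 s read after EC20 dopamine flagged potentiators.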

[12] = qHTS assay to identify small molecules that stimulate interleukin-8 (IL-8) secretion (AID 651758; active means well fitted activation curve with a large enough effect in the signal ratio; inconclusive means small, poorly fitted or top-dose-only effect, or effect the other way, or a change in a side signal; the % refers to the signal ratio); settings: HTRF ratio (665/615); activation: at 92.2 µM (top of the series)
Summary of the method: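 Quantitative HTS in THP-1 monocytic cells at 2000 cells per well, with 16 hrs compound incubation at 37 C. IL-8 in the medium was then quantified by HTRF immunoassay, read after 1-3 hrs at room temperature.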
Potency means the concentration at half of the fitted maximal effect.

Compound: Cc1c(N=Nc2c(O)n(-c3ccc(Br)cc3)c(=O)[nH]c2=O)c(=O)n(-c2ccccc2)n1C
- Potency [1]: inconclusive: 1 µM [inhibitor, partial curve, poor fit]

Compound: COc1ccc(/C=C/C(=O)NC(=S)N2C[C@H]3C[C@H](C2)c2cccc(=O)n2C3)cc1OC
- activity change, negative = inhibition [1]: inconclusive: 61.8% [activator]

Compound: CC(=O)Nc1ccc(N=Cc2c(O)n(Cc3ccco3)c(=O)[nH]c2=O)cc1
- Potency [2]: inactive
- Potency [3]: inconclusive: 67 µM [inhibitor, partial curve]

Compound: O=C(O)CNC(=O)C(CS)Cc1ccccc1 (stereo unspecified)
- Potency [4]: inconclusive: 2.82 µM [inhibitor, partial curve, poor fit]

Compound: CNCC[C@@H](Oc1ccc(C(F)(F)F)cc1)c1ccccc1
- Potency [5]: inconclusive: 14.1 µM [inhibitor, partial curve]
- Potency [4]: inconclusive: 0.0005 µM [inhibitor, full curve, poor fit]
- Potency [6]: inconclusive: 13.1 µM [inhibitor, single point]

Compound: NCC1OC(O[C@@H]2[C@H](O)[C@@H](OC3C(O)C(N)CC(N)C3OC3OC(CO)C(O)C(O)C3N)O[C@@H]2CO)C(N)C(O)C1O (stereo partly specified)
- Potency [4]: inconclusive: 0.316 µM [inhibitor, full curve, poor fit]

Compound: O=C(O)c1cc[c]([Sb](=[O])([OH])[OH])cc1[N+](=O)[O-]
- Potency [7]: active: 10 µM

Compound: CCc1nnc(NC(=O)CSc2ccc(-c3ccco3)nn2)s1
- Potency [2]: inconclusive: 39.8 µM [inhibitor, single point]

Compound: NC(Cn1ccc(=O)[nH]c1=O)C(=O)O (stereo unspecified)
- Potency [4]: inconclusive: 63.1 µM [inhibitor, partial curve, poor fit]

Compound: COc1ccccc1N1CCN(Cc2ccc(SC)cc2)CC1
- Potency [1]: inactive

Compound: O=C(O)Cn1cc(/C=C2\C(=O)NC(=O)N(Cc3ccco3)C2=O)c2ccccc21
- Potency [8]: inconclusive: 17.8 µM [inhibitor, single point]
- Potency [2]: active: 11.2 µM
- Potency [9]: inconclusive: 112 µM [inhibitor, partial curve]

Compound: CN1CCC[C@H]1c1cccnc1
- Potency [4]: inconclusive: 0.891 µM [inhibitor, full curve, poor fit]
- Potency [10]: inconclusive: 79.4 µM [inhibitor, single point]
- Potency [11]: inconclusive: 0.146 µM [activator, full curve, poor fit]
- Potency [12]: inconclusive: 47.3 µM [activator, partial curve]

Compound: C=CCn1c(O)c(/C(CC)=N/NC(=S)Nc2ccccc2)c(=O)[nH]c1=O
- Potency [2]: inconclusive: 0.178 µM [inhibitor, full curve, poor fit]
